According to patent publication US20120202825A1, “Soluble Salts of Thieno [2,3-d] Pyrimidine Derivatives” (priority 2011, published 2012):
Structures can show the parent of a compound that is named as a salt. For at least one compound, name, drawing or mass did not settle the structure.

What was measured:
[1] = tested on: irritation-induced reduction in bladder capacity; test: Dilute Acetic Acid Model-Rats (filling cystometry); format: in vivo, rat; details: intraduodenal
[2] = tested on: reduction in bladder capacity following continuous infusion of dilute acetic acid; test: Dilute Acetic Acid Model-Cats (cystometry); format: in vivo, cat
[3] = tested on: acetic acid-induced colonic hypersensitivity; test: Visceromotor response to colorectal distension, acetic acid-induced colonic hypersensitivity; format: in vivo, rat; details: rats
Description: The visceromotor behavioral response to colorectal distension was measured by counting the number of abdominal contractions recorded by a strain gauge sutured onto the abdominal musculature as described in Gunter et al., Physiol. […] A 5 cm latex balloon catheter inserted via the anal canal into the colon was used for colorectal distensions. Constant pressure tonic distensions were performed in a graded manner (15, 30 or 60 mmHg) and were maintained for a period of 10 min and the numbers of abdominal muscle contractions were recorded to measure the level of colonic sensation. A 10 min recovery was allowed between distensions.
J. Physiol. […]
Injection volume was 0.2 mL using 100% propylene glycol as the vehicle. Three consecutive colorectal distensions at 15, 30 or 60 mmHg applied at 10-min intervals were recorded. Visceromotor responses were evaluated as the number of abdominal muscle contractions recorded during the 10-min periods of colorectal distension.
Adult male rats were used in the study. […] After a basal reading of the number of abdominal contractions with the balloon inserted but not distended, three consecutive 10-min lasting colorectal distensions at 15, 30, and 60 mmHg were applied at 10-min intervals. Colorectal sensitivity was evaluated by counting the number of reflex abdominal contractions (i.e. the visceromotor response) observed within each distension period. […]

[4] = tested on: stress-induced accelerated colonic transit; test: Water avoidance stress (WAS) fecal pellet output, model of increased colonic transit; format: in vivo, rat; details: rats, 3, 10 and 30 mg/kg i.p.
Description: Preliminary testing in the water avoidance stress model confirmed that there exists an association between stress and altered colonic motility. Fecal pellet output was measured by counting the total number of fecal pellets produced during 1 hour of WAS. Using the WAS model, the effect of MCI-225 was compared to the effects of ondansetron (5-HT3 antagonist) or nisoxetine (noradrenaline reuptake inhibitor—NARI) to affect fecal pellet output.
Adult male F-344 rats, supplied by Charles River Laboratories and weighing 270-350 g, were used to complete this study. The rats were housed 2 per cage under standard conditions. Following one to two weeks of acclimatization to the animal facility, the rats were brought to the laboratory and handled daily for another week to acclimatize them to laboratory conditions and to the research associate who performed the studies. […]
All rats underwent sham stress (1-hour in stress chamber without water) for 2-4 consecutive days before undergoing WAS (sham was performed until rats produced 0-1 pellet per hour for 2 consecutive days). At the end of the 1-hour stress period, the fecal pellets were counted and recorded.
WAS causes an acceleration of colonic transit, which can be quantified by counting the number of fecal pellets, produced during the stress procedure. […]
Statistical significance was assessed using one-way ANOVA followed by Tukey post-test. […]

small intestinal transit = test: Small Intestinal Transit Rodent Model (charcoal meal); format: in vivo, rat; details: rats, 3, 10 or 30 mg/kg i.p.
Description: Following an overnight fast, rats were brought to the laboratory in their home cages and received an i.p. injection of one of the following: […] Control rats received no treatment. The treated rats were placed back in the home cages and after 30 min, were fed a 2 mL charcoal meal via an oral gavage. Small intestinal transit was measured following 15 min test-period. Each rat was placed briefly in a glass chamber with IsoFlo for anesthesia and sacrificed. The stomach and the small intestine were removed and the total length of the small intestine was measured. Transit was then measured as the distance that the charcoal meal had traveled along the small intestine and expressed as % of the total length. Animals were randomly assigned to experimental groups and experiments were performed as illustrated in Table 3. Ondansetron was supplied from APIN Chemicals LTD. […] The distance traveled by the charcoal meal was quantified as a percent of the small intestinal length, using the following equation: Transit(%)=cm traveled by meal/cm total small intestinal length×100 […] […] Differences between individual dose groups within treatments and comparisons between drug-treated and vehicle-treated groups were determined using an unpaired t test considering that when % is used as a relative unit, t-statistic is relevant. […]

cisplatin-induced emesis = test: Cisplatin-induced emesis in the ferret; format: in vivo, ferret (Mustela putario furo); details: ferret, 1, 10 or 30 mg/kg i.p.
Description: Adult male ferrets (Mustela putario furo) weighing 1200-1880 g were purchased from Triple F Farms (Sayre, Pa.) and housed in individual cages at standardized conditions (12:12 h light/dark cycle and 21-23° C.). Prior to the experiments, the ferrets were allowed a 7-10 day acclimatization period to the animal facility. The ferrets were fed a carnivore diet with free access to food and water throughout the course of the study. The use of the ferret model of emesis and the drug treatment were preapproved in accordance with facility standards. A cisplatin solution was prepared by adding preheated (70° C.) saline to cisplatin powder (Sigma-Aldrich Co.) and stirring or sonicating at 40° C. until dissolved. Following administration of the cisplatin and either MCI-225, ondansetron or vehicle alone, the occurrence of retching and vomiting was monitored for a period of 6 hours. Retching was defined as the number of forceful rhythmic contractions of the abdomen occurring with the animal in characteristic posture, but not resulting in the expulsion of upper gastrointestinal tract contents (Watson et al., British Journal of Pharmacology, 115(1): 84-94 (1994)). […] The latency of the retching or vomiting response and the number of episodes were recorded for each animal and summarized for each experimental group (Wright et al., Infect. Immun., 68(4): 2386-9 (2000)). […]

Cc1cc2c(-c3ccccc3F)nc(N3CCNCC3)nc2s1 [MCI-225, 4-(2-fluorophenyl)-6-methyl-2-(piperazin-1-yl)thieno[2,3-d]pyrimidine hydrochloride]
bladder capacity versus AA/Veh 3 ([1]; 10 mg/kg): significantly higher | bladder capacity versus AA/Veh 3 ([1]; 30 mg/kg): significantly higher | bladder capacity ([1]; dose range 3-30 mg/kg, continuous acetic acid irritation): dose-dependent increase | bladder capacity following acetic acid irritation, individual dose ([2]; 30 mg/kg): individual dose significance attained | bladder capacity following acetic acid irritation ([2]; 3 point dose response (3, 10, 30 mg/kg)): significant dose-dependent increase | number of abdominal contractions in response to colorectal distension ([3]; 10 mg/kg i.p., 15, 30 and 60 mmHg, vs vehicle): significant decrease | effect on visceromotor response, high dose compared with 10 mg/kg ([3]; 30 mg/kg i.p.): less effective | WAS-induced fecal pellet output during 1 hour [4]: significant dose-dependent inhibition | small intestinal transit compared to the vehicle (small intestinal transit): dose-dependent inhibition | latency of the emetic response (cisplatin-induced emesis): increase in the latency | retches and vomits induced by cisplatin (cisplatin-induced emesis): dose-dependent reduction
